The other results are listed elsewhere or left out.
What follows are targets tested with CS(=O)(=O)c1ccc(-c2cnc(N)c(C(=O)Nc3ccccc3)n2)cc1 (assay: log2 fold change, soluble protein after heating vs DMSO (PISA); higher = thermal stabilisation; K562 cells, 10 uM, 30 min; active = over 0.2 and 3.5 SD of the protein, either way, in both replicates (recomputed)).
In short: (§1)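 Values are thermal stability changes relative to control samples and are taken from duplicates. They are stated as log2 fold changes. Before quantification by TMTpro 16plex LC-MS/MS with equalised channel sums, K562 cells at 2×10^6 cells/mL were treated with 10 μM compound for 30 min, heated in aliquots for 3 min across 48°C-58°C, pooled, extracted in PBS with 0.5% NP-40 at 4°C, and centrifuged at 21,000xg for 90 min to give the soluble supernatant.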

Chains of the proteins cited; added tags and fusions are not shown. Lines headed by an entry give the natural chain unless they say otherwise; changes in a name come on top.
UniProt Q9BVP2: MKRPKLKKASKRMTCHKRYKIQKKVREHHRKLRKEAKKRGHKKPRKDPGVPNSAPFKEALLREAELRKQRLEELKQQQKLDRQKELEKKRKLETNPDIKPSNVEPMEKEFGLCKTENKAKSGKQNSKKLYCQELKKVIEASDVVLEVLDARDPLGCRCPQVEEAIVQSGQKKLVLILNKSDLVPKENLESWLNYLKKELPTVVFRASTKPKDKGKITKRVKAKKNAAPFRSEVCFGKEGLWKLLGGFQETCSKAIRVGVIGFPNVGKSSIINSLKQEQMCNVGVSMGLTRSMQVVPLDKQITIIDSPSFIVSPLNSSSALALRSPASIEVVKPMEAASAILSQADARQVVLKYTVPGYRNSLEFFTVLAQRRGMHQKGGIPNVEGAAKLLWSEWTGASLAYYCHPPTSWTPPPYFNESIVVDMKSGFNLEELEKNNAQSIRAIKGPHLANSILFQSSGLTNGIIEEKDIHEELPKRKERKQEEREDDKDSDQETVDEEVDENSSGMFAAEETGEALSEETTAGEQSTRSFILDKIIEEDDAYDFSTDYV
UniProt Q14749: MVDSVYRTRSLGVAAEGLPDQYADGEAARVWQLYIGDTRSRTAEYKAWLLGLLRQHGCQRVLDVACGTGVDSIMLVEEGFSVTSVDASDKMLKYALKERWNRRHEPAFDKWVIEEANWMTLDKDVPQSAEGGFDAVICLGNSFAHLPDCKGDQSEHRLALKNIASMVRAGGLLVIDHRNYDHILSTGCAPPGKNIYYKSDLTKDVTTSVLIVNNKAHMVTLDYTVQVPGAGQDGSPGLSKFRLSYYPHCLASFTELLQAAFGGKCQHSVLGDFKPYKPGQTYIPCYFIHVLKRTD
UniProt P21695: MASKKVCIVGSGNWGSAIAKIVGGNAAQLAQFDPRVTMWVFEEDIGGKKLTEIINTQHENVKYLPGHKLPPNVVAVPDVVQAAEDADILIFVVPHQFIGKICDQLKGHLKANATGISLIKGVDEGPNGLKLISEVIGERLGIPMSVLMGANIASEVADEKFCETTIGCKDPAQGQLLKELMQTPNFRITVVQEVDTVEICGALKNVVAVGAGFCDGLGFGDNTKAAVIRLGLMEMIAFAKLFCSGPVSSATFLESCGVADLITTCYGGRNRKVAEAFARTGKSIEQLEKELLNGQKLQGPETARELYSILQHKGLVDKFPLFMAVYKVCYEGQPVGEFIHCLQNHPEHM
UniProt Q9BRR8: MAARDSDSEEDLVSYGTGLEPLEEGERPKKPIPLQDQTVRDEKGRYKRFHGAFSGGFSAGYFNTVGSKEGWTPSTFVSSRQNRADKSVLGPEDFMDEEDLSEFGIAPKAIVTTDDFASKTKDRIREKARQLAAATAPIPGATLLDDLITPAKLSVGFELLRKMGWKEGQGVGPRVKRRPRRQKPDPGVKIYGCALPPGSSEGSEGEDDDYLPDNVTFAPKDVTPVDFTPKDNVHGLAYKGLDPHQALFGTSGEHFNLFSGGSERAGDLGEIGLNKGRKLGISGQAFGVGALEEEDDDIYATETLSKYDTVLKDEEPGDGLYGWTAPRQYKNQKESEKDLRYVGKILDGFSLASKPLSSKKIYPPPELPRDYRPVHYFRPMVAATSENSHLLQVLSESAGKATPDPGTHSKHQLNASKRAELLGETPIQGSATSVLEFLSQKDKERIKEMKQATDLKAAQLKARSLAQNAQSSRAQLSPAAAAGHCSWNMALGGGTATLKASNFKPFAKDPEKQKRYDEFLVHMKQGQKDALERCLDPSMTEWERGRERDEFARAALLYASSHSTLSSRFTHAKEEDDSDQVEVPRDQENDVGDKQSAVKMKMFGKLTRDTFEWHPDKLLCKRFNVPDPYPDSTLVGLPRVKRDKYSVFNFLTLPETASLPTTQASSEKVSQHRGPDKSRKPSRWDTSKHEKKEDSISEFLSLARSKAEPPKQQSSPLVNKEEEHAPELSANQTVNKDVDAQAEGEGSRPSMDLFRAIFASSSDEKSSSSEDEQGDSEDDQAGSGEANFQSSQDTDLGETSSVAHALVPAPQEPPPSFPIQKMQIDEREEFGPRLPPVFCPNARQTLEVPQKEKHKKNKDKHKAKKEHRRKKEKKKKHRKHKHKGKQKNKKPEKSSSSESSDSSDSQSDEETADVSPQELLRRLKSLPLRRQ
UniProt Q9NPB8: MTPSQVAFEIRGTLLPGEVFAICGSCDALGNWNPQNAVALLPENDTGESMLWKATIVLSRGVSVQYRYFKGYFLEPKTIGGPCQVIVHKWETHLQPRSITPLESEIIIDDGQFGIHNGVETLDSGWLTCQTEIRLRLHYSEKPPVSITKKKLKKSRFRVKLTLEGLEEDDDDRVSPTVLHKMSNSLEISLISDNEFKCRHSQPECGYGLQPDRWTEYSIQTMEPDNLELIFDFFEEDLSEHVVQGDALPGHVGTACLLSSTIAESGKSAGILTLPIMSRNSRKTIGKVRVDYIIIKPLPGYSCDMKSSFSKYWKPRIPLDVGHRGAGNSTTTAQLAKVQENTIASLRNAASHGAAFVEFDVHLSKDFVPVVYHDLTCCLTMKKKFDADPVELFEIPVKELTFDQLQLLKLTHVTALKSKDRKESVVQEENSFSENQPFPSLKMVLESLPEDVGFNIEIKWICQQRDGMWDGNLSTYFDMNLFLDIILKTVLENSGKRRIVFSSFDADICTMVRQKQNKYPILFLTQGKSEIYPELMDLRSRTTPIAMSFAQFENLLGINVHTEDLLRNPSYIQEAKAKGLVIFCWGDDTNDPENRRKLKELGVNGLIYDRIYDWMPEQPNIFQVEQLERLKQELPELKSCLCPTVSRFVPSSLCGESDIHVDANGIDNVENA
UniProt Q9NPR9: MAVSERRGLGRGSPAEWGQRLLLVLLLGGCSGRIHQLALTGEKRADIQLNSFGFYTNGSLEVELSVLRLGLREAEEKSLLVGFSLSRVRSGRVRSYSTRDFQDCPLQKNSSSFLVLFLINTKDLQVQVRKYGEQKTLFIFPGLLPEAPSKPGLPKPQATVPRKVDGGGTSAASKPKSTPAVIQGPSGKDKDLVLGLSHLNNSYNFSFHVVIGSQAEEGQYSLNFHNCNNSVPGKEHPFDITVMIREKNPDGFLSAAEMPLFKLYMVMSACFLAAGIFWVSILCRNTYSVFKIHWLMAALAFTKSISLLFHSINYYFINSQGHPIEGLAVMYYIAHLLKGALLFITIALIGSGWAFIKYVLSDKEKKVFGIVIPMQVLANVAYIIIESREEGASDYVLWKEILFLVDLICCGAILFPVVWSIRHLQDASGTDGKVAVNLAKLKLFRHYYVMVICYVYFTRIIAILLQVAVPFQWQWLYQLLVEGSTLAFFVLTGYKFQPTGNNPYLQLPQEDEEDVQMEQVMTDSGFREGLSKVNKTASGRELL
UniProt Q86V85: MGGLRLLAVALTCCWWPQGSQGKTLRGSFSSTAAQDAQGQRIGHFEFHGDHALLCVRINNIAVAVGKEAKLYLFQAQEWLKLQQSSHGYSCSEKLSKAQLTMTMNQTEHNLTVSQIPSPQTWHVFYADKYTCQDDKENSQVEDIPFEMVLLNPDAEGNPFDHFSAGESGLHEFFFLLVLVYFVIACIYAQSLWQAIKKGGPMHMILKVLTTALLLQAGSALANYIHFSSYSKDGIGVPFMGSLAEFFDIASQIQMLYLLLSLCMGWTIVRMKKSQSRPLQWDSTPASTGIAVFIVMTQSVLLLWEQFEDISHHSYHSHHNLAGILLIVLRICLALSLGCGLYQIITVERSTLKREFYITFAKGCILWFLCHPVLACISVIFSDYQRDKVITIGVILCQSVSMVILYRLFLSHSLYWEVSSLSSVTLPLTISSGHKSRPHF
UniProt Q9Y4H4: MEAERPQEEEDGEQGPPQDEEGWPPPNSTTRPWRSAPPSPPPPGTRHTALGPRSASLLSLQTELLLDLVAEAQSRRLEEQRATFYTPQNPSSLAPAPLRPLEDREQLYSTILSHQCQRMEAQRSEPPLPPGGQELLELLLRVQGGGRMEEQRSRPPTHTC
UniProt Q9NZD2: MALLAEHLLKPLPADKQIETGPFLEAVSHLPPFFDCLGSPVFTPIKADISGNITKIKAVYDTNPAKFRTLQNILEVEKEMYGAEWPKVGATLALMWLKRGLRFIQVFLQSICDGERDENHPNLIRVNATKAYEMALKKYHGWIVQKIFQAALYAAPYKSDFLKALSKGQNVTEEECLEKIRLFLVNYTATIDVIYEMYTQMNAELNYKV
UniProt Q5T3I0: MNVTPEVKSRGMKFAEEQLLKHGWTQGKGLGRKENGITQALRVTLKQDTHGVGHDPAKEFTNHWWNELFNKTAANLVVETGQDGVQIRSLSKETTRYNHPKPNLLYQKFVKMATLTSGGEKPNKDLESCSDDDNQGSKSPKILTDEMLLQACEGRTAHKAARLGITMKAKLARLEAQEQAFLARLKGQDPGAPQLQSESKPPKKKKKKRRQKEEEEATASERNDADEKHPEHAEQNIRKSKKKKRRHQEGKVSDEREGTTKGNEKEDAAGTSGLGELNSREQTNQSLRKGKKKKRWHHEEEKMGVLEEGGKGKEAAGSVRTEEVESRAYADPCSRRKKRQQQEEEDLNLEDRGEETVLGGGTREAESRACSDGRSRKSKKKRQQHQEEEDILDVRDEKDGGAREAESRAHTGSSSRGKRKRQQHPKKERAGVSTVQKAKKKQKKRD
UniProt Q6ZS86: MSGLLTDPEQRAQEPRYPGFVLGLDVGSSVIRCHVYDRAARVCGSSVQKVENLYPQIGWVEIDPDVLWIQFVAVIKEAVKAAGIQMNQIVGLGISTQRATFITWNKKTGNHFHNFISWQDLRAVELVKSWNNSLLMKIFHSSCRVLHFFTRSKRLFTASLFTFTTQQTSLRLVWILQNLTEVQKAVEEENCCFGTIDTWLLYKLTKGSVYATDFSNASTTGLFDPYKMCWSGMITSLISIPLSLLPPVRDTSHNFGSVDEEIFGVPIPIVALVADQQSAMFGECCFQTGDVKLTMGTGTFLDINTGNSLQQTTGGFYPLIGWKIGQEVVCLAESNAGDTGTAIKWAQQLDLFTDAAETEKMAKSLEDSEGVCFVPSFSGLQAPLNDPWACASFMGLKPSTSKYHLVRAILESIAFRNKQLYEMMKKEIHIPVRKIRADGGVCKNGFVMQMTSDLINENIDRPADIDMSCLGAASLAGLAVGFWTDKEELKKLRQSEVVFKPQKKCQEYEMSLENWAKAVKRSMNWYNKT
UniProt Q14161: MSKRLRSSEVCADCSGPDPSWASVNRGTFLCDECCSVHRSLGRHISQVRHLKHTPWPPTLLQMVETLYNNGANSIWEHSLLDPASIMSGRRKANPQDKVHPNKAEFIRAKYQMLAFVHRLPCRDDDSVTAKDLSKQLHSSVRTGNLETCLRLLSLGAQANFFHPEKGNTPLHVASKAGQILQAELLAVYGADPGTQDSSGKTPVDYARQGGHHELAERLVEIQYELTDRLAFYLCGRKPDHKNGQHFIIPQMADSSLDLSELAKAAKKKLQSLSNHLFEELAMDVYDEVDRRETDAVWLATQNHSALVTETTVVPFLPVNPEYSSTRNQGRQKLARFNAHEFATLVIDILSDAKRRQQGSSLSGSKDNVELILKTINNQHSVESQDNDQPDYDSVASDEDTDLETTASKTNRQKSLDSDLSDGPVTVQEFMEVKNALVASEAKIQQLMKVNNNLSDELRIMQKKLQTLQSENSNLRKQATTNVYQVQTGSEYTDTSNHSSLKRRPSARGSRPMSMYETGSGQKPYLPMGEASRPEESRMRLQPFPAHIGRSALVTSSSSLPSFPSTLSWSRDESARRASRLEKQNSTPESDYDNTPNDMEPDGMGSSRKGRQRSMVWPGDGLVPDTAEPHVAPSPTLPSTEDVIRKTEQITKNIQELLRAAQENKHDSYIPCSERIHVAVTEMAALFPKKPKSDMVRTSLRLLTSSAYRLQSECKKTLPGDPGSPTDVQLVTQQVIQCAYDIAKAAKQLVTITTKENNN
UniProt Q9BQQ3: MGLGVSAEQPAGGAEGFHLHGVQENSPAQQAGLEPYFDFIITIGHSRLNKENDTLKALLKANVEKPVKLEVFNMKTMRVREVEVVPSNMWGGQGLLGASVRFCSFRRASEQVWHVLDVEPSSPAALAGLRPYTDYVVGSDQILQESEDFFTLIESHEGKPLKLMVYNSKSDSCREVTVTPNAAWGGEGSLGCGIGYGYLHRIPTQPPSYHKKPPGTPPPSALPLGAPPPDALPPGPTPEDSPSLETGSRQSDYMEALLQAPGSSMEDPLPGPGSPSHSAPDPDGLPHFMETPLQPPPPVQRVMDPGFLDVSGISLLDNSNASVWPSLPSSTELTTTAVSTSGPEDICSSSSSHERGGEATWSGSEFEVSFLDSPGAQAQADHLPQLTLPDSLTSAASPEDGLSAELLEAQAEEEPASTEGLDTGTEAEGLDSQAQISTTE
UniProt P22352, whole entry, looked up: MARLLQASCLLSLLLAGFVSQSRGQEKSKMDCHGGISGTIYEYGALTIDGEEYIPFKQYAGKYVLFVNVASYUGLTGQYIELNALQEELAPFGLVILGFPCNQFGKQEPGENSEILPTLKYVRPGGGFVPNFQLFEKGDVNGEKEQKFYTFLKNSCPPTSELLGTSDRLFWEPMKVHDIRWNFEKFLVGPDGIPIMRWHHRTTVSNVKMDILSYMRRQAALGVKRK

Row | Target | log2 fold change
1 | GNL3 (UniProt Q9BVP2) | inactive: 0.126
2 | GNMT (UniProt Q14749) | inactive: -0.053
3 | GPD1 (UniProt P21695) | inactive: -0.036
4 | GPATCH1 (UniProt Q9BRR8) | inactive: 0.099
5 | GPCPD1 (UniProt Q9NPB8) | inactive: 0.187
6 | GORAB (UniProt Q5T7V8) | inactive: -0.109
7 | GPR108 (UniProt Q9NPR9) | inactive: 0.046
8 | GOLM1 (UniProt Q8NBJ4) | inactive: -0.103
9 | GPR180 (UniProt Q86V85) | inactive: 0.118
10 | GPSM3 (UniProt Q9Y4H4) | inactive: 0.161
11 | GINM1 (UniProt Q9NU53) | inactive: -0.155
12 | GLTP (UniProt Q9NZD2) | inactive: 0.219

Each target was assayed with C[C@@H](Oc1cc(-c2cnn(C3CCNCC3)c2)cnc1N)c1c(Cl)ccc(F)c1Cl [crizotinib] in the same assay as above.
In short: as §1

Row | Target | log2 fold change
13 | GPS1 (UniProt A8K070) | inactive: -0.022
14 | GOLGA8R (UniProt I6L899) | inactive: -0.009
15 | GPATCH4 isoform 3 (UniProt Q5T3I0) | inactive: 0.057
16 | GPAA1 (UniProt E9PLG8) | inactive: 0.02
17 | GK5 (UniProt Q6ZS86) | inactive: 0.022
18 | GPR68 (UniProt Q15743) | inactive: -0.017
19 | GNPTG (UniProt Q9UJJ9) | inactive: -0.01
20 | GIT2 (UniProt Q14161) | inactive: 0.067
21 | GP6 isoform 3 (UniProt Q9HCN6) | inactive: -0.342

The targets below were run with C[C@@H]1COCCN1C2=NC(=NC(=C2)C3(CC3)S(=O)(=O)C)C4=C5C=CNC5=CC=C4 in the same assay as above.
In short: as §1

Row | Target | log2 fold change
22 | GNL3 (UniProt Q9BVP2) | inactive: -0.009
23 | GORASP1 (UniProt Q9BQQ3) | inactive: -0.139
24 | GPATCH4 isoform 3 (UniProt Q5T3I0) | inactive: -0.076
25 | GRAMD1A (UniProt Q96CP6) | inactive: 0.091
26 | GPD1 (UniProt P21695) | inactive: 0.034
27 | GPATCH1 (UniProt Q9BRR8) | inactive: -0.064
28 | GK5 (UniProt Q6ZS86) | inactive: -0.011
29 | GSDME (UniProt O60443) | inactive: 0.178
30 | GPCPD1 (UniProt Q9NPB8) | inactive: -0.381
31 | GPR108 (UniProt Q9NPR9) | inactive: -0.035
32 | GPR180 (UniProt Q86V85) | inactive: 0.296
33 | GNPTG (UniProt Q9UJJ9) | inactive: 0.173
34 | GNL2 (UniProt Q13823) | inactive: -0.186
35 | GINM1 (UniProt Q9NU53) | inactive: -0.127
36 | GIT2 (UniProt Q14161) | inactive: -0.29
37 | GPNMB (UniProt Q14956) | inactive: -0.151
38 | GPX3 (UniProt P22352) | inactive: 0.098

What follows are targets tested with C[C@H](C1=CC=C(C=C1)C(=O)NC2=C3C=CNC3=NC=C2)N in the same assay as above.
In short: as §1

Row | Target | log2 fold change
39 | GPS1 (UniProt A8K070) | inactive: -0.033
40 | GNL3 (UniProt Q9BVP2) | inactive: 0.065
41 | GORASP1 (UniProt Q9BQQ3) | inactive: 0.033
42 | GNMT (UniProt Q14749) | inactive: 0.098
43 | GOLGA8R (UniProt I6L899) | inactive: -0.059
44 | GPATCH4 isoform 3 (UniProt Q5T3I0) | inactive: 0.507
45 | GPD1 (UniProt P21695) | inactive: -0.482
46 | GPAA1 (UniProt E9PLG8) | inactive: 0.162
47 | GLE1 (UniProt Q53GS7) | inactive: 0.573
48 | GSE1 (UniProt Q14687) | inactive: 0.008
49 | GPT2 (UniProt Q8TD30) | inactive: -0.005
50 | GPATCH1 (UniProt Q9BRR8) | inactive: 0.017
51 | GK5 (UniProt Q6ZS86) | inactive: -0.053
52 | GOSR1 (UniProt E9PCW1) | inactive: -0.017
53 | GPCPD1 (UniProt Q9NPB8) | inactive: 0.109
54 | GPR108 (UniProt Q9NPR9) | inactive: -0.006
55 | GOLM1 (UniProt Q8NBJ4) | inactive: 0.124
56 | GPR180 (UniProt Q86V85) | inactive: 0.116
57 | GNPTG (UniProt Q9UJJ9) | inactive: 0.133
58 | GPSM3 (UniProt Q9Y4H4) | inactive: -0.128
59 | GIT2 (UniProt Q14161) | inactive: 0.049
60 | GP6 isoform 3 (UniProt Q9HCN6) | inactive: 0.011
61 | GLS2 (UniProt Q9UI32) | inactive: -0.236
62 | GLTP (UniProt Q9NZD2) | inactive: -0.013
63 | GPX3 (UniProt P22352) | inactive: 0.077

These targets were tested with C[C@H](Nc1ncnc2nc[nH]c12)c1cc2cccc(Cl)c2c(=O)n1-c1ccccc1 [duvelisib] in the same assay as above.
In short: as §1

Row | Target | log2 fold change
64 | GORASP1 (UniProt Q9BQQ3) | inactive: -0.13
65 | GNMT (UniProt Q14749) | inactive: 0.012
66 | GPATCH4 isoform 3 (UniProt Q5T3I0) | inactive: -0.071
67 | GPAA1 (UniProt E9PLG8) | inactive: 0.035
68 | GLE1 (UniProt Q53GS7) | inactive: -0.172
69 | GPT2 (UniProt Q8TD30) | inactive: 0.141
70 | GPATCH1 (UniProt Q9BRR8) | inactive: 0.095
71 | GK5 (UniProt Q6ZS86) | inactive: 0.146
72 | GSDME (UniProt O60443) | inactive: 0.046
73 | GOSR1 (UniProt E9PCW1) | inactive: -0.055
74 | GPCPD1 (UniProt Q9NPB8) | inactive: 0.013
75 | GORAB (UniProt Q5T7V8) | inactive: 0.206
76 | GPR108 (UniProt Q9NPR9) | inactive: 0.033
77 | GPR180 (UniProt Q86V85) | inactive: -0.016
78 | GNPTG (UniProt Q9UJJ9) | inactive: 0.022
79 | GLT8D1 (UniProt Q68CQ7) | inactive: 0.118
80 | GPSM3 (UniProt Q9Y4H4) | inactive: 0.256
81 | GIT2 (UniProt Q14161) | inactive: -0.195
82 | GOLGA1 (UniProt Q92805) | inactive: 0.171
83 | GPX3 (UniProt P22352) | inactive: 0.103
84 | GRK6 isoform 2 (UniProt P43250) | inactive: 0.04

Source: the supplement of paper PMC10849652
